Drawing on article PMC3372421, this text covers binding for one substance.

By UniProt entry, the sequences of proteins in these tests, tags left out.
UniProt Q7Z434: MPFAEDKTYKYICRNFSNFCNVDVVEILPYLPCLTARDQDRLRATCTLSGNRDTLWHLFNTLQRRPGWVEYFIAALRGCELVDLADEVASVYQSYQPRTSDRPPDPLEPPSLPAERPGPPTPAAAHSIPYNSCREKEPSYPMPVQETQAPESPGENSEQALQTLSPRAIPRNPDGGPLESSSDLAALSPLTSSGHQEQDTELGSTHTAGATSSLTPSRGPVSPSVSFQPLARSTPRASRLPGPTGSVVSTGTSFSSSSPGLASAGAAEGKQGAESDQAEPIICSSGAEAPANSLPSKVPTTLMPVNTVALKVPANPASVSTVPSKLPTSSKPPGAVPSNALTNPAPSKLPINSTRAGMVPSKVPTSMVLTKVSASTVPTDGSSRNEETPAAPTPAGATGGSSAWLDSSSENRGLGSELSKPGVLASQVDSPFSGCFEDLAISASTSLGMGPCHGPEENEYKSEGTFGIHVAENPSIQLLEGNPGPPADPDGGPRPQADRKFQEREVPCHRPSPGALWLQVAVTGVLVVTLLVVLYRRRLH
UniProt Q14258: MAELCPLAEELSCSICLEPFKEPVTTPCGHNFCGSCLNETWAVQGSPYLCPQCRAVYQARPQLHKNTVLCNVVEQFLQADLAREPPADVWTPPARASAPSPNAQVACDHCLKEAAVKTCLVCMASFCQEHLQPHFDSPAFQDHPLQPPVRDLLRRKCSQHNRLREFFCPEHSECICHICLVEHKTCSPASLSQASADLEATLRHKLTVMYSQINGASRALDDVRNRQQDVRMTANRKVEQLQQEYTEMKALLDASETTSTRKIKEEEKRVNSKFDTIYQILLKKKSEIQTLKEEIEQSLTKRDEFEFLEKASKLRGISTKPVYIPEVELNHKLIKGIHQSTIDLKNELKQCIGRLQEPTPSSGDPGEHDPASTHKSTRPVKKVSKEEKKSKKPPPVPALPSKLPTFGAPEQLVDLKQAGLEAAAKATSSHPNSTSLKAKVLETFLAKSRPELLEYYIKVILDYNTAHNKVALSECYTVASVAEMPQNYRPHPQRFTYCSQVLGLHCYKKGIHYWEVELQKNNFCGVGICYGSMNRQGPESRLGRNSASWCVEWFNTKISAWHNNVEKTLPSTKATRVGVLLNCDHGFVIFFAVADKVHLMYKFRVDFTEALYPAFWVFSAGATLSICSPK

No constants are given. Whether binding was seen depends on the method and setting. In cells and extracts the contact can be indirect. Here binding means that the protein was enriched with, or labelled near, the bait; the list need not be complete.

This assay addresses mitochondrial antiviral signaling adaptor MAVS (human (endogenous in HEK293T)) (UniProt Q7Z434). Put plainly: affinity purification with mass spectrometry; MAVS complex immunoprecipitated from cells infected with SeV H4 for four hours; one-dimensional gel, nano LC-MS/MS (10 segment GelC/MS, spectral counting).

“E3 ubiquitin ligase TRIM25 (from UniProt Q14258 1-630)”: the binding entry is “binds”.
